Paper PMC4007406
No constants are given. Whether binding was seen depends on the method and setting. Binding seen in cells or lysates may run through a third protein. For some assays here: Binding can be weak; no strength is given.

What was measured:
[1] = target: T1, Sec13 (zebrafish (endogenous in inner ear hair cells)) (UniProt Q7T2E1); experiment: proximity ligation; Duo-Link proximity ligation assay on fixed whole-mount larvae at 5 dpf, homozygous cdh23^tj264a mutants, anterior macula hair cells
T1 sequence: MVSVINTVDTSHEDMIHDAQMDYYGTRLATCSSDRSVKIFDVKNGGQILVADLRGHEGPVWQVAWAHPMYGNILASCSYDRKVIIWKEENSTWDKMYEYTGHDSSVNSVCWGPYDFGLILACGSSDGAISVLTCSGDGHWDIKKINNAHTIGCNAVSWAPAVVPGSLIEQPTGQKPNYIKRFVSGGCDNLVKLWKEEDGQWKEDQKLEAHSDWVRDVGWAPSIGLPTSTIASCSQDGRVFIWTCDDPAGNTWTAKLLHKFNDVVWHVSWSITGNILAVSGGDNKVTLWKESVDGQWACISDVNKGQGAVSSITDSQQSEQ

[2] = target: T1, Sec13 (zebrafish (endogenous in inner ear hair cells)); experiment: proximity ligation; Duo-Link proximity ligation assay on fixed whole-mount zebrafish larvae at 5 dpf, wild-type siblings, anterior macula hair cells; pairs of primary antibodies at 1:500 (tubulin antibodies 1:100)

Ift88
binding [1]: no binding (only in cdh23^tj264a mutants)
binding [2]: binds
